Laboratory results as given in PubChem BioAssay AID1347076 (National Center for Advancing Translational Sciences (NCATS), 2019).
Several values for one entry are separate records, joined by “and”; a condition that tells them apart may be missing. Equal entries are not always repeated. In all, about 400,000 compounds went through this assay and about 13,000 (3.2%) were called active. Inconclusive results, whose numbers are uncertain, are shown with a selection of clear calls. Calls follow the shape of the dose curve; as a rule, active = well fitted cell-killing curve with a large enough effect; inconclusive = small, poorly fitted or top-dose-only effect, or effect the other way; inactive = flat fitted curve, though single readings scatter. Where the call is inconclusive, the potency comes from a doubtful curve fit.

Assay: qHTS assay for MDR1-selective chemotherapeutics: Primary screen using the drug-selected MDR subline cells KB-V1; also: nearly all actives have a fitted effect of over 60% in size
Details: KB-V1 MDR cells viability, CellTiter-Glo, 72 h; activity change, negative = cytotoxicity: at 46.1 µM (top of the series)
Method in brief: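 Cytotoxicity toward P-gp-expressing KB-V1 cells was determined as loss of CellTiter-Glo luminescence after 72 h at 37 degrees C. Compounds were tested in quantitative HTS format across a concentration range, with curves fitted to normalized data.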
% is scaled to controls: 0 for no effect and ±100 for the full control effect; potency is read from the fitted curve at half-maximal effect.

| SMILES | Potency | activity change, negative = cytotoxicity |
| --- | --- | --- |
| CC(=O)Nc1ccc(NC(=O)Nc2ccc(C)c(C)c2)cc1 | inconclusive: 23.1 µM [rising, single point] |  |
| Cc1ccc(C2N(C)C(=O)c3ccccc3N2C)cc1 (stereo not drawn) | inconclusive: 18.4 µM [cytotoxic, single point] |  |
| COc1ccc2c(c1)C(C)=CC(C)(C)N2C(=O)C(C)N1C(=O)c2ccccc2C1=O (stereo not drawn) | inconclusive: 23.1 µM [cytotoxic, partial curve, poor fit] |  |
| CNC(=O)OCc1snc(-c2ccccc2)c1COC(=O)NC |  | inactive: 3.12% |
| Oc1ccccc1CNCC12CC3CC(CC(C3)C1)C2 |  | inactive: 7.45% |
| Cc1cc(Cl)cc(C)c1OCCOCCNCc1ccccc1 | inconclusive: 3.26 µM [cytotoxic, full curve] |  |
| O=C(c1ccccc1)c1c2c(cc3sc4ccccc4[n+]13)-c1cccc3cccc-2c13 | inconclusive: 20.6 µM [cytotoxic, partial curve, poor fit] |  |
| COc1cccc(N(C(=O)c2cnccn2)C(C(=O)NC2CCCCC2)c2ccc(Cl)cc2)c1 (stereo not drawn) |  | inactive: -19.2% |
| COc1ccc(-c2csc(-c3ccc(O)cc3)n2)cc1 | active: 2.59 µM |  |
| CC12CCC(=O)N1C(C(=O)NNC(=O)c1ccc(Br)cc1)CS2 (stereo not drawn) | inconclusive: 29.1 µM [cytotoxic, single point] |  |
| O=C(/C=C/c1ccco1)NC(=S)Nc1ccc(O)c(-c2nc3ccccc3s2)c1 | inconclusive: 18.4 µM [cytotoxic, single point] |  |
| CN1C(=O)/C(=C\c2ccco2)N=C1c1ccc(Cl)cc1Cl |  | inactive: -15.4% |
| Cc1cc(C)n2c(Br)c(CSc3nc4ccccc4o3)nc2n1 | active: 20.6 µM |  |
| Cc1ccnc(NC(=O)C2CCN(S(=O)(=O)c3cccc4nonc34)CC2)c1 | inconclusive: 11.6 µM [cytotoxic, partial curve] |  |
| CCC(=O)N1CCc2cc(Br)cc(S(=O)(=O)N3CCCCCC3)c21 | inconclusive: 11.6 µM [cytotoxic, partial curve, poor fit] |  |
| Cc1ccc(N2CCN(C(=O)c3cc4cc5ccc(C)cc5nc4s3)CC2C)cc1 (stereo not drawn) |  | inactive: -6.53% |
| COc1cc(C=O)ccc1OCCOCCOc1cc(C)ccc1Cl | inconclusive: 18.4 µM [cytotoxic, partial curve, poor fit] |  |
| CCOc1ccc(N(CC(=O)Nc2cccc(Cl)c2)S(=O)(=O)c2c(C)noc2C)cc1 | inconclusive: 29.1 µM [cytotoxic, single point] |  |
| CC(=O)C(=Cc1ccccc1)c1ccccc1 | inconclusive: 0.0259 µM [rising, full curve, poor fit] |  |
| COc1cc(C(C)=O)ccc1OC(=O)c1cc2cccc(OC)c2oc1=O |  | inactive: 0.75% |
| CNC(=S)N/N=C(\C)c1cccc(C(F)(F)F)c1 | inconclusive: 23.1 µM [cytotoxic, single point] |  |
| CC(C)(C)C(=O)/C=C/Nc1ccccc1O |  | inactive: 0.257% |

Complete entries from above.
COc1cc(C=O)ccc1OCCOCCOc1cc(C)ccc1Cl is entered as Potency: inconclusive: 18.4 µM [cytotoxic, partial curve, poor fit]
Oc1ccccc1CNCC12CC3CC(CC(C3)C1)C2 is entered as activity change, negative = cytotoxicity: inactive: 7.45%
CNC(=O)OCc1snc(-c2ccccc2)c1COC(=O)NC is entered as activity change, negative = cytotoxicity: inactive: 3.12%
O=C(/C=C/c1ccco1)NC(=S)Nc1ccc(O)c(-c2nc3ccccc3s2)c1 is entered as Potency: inconclusive: 18.4 µM [cytotoxic, single point]

The results go on:

| SMILES | Potency | activity change, negative = cytotoxicity |
| --- | --- | --- |
| O=C(CC1(O)C(=O)Nc2ccccc21)c1cccc(Br)c1 (stereo not drawn) | inconclusive: 23.1 µM [rising, partial curve, poor fit] |  |
| Nc1ccccc1Nc1ccccc1 | inconclusive: 23.1 µM [cytotoxic, partial curve, poor fit] |  |
| CC(=O)c1c(C)[nH]c(C(=O)OCC(=O)Nc2ccc(Cl)c(S(=O)(=O)N(C)C)c2)c1C | inconclusive: 23.1 µM [cytotoxic, single point] |  |
| CCc1ccc([C@@H]2CC(=O)[C@@H]3CN(S(=O)(=O)c4ccc(C)cc4)[C@H](c4ccc(Cl)cc4)C[C@@H]3N2S(=O)(=O)c2ccc(C)cc2)cc1 |  | inactive: 14.3% |
| COc1ccc2c(c1)[nH]c1c(=O)n(CC3CCCO3)cnc12 (stereo not drawn) | active: 20.6 µM |  |
| COc1cccc(NC(=O)c2ccc3c(c2)N(CC(=O)N2CCCCC2)C(=O)C(C)(C)O3)c1 | inconclusive: 11.6 µM [cytotoxic, partial curve, poor fit] |  |
| COC(=O)C1=CN(Cc2ccc(C)cc2)C=C(C(=O)OC)C1c1ccc(F)c(F)c1 | inconclusive: 29.1 µM [cytotoxic, single point] |  |
| O=C(c1cnc(N2CCN(c3ncccn3)CC2)c2ccccc12)N1CCN(c2ccccn2)CC1 | active: 20.6 µM |  |
| CCOC(=O)C1CCCN(C(=O)c2cccc(S(=O)(=O)N(C)c3ccc(OC)cc3)c2)C1 (stereo not drawn) | inconclusive: 7.31 µM [cytotoxic, partial curve] |  |
| COc1ccccc1-c1cccc(-c2nc(C(=O)Nc3nccs3)cc3c2[C@@H](CCO)N(C(=O)CC2CC2)C3)c1 | inconclusive: 29.1 µM [cytotoxic, single point] |  |
| CCN(CC)S(=O)(=O)c1cccc(NC(=O)CCNC(=O)c2ccccc2Cl)c1 | inconclusive: 11.6 µM [cytotoxic, partial curve, poor fit] |  |
| COc1ccc(C2=NOC(C(=O)N3CCN(C(=O)c4ccco4)CC3)C2)cc1OC (stereo not drawn) |  | inactive: 6.85% |
| CC1CC(=O)N(CC(=O)Nc2ccc3c(c2)OCO3)c2ccccc2S1 (stereo not drawn) | active: 16.4 µM |  |
| CCCNC(=O)CNC(=S)N(Cc1cc(OC)c(OC)c(OC)c1)C1CCCC1 | active: 16.4 µM |  |
| COc1ccc(C2C(Oc3ccccc3C)C(=O)N2Cc2ccc(F)cc2)cc1OC (stereo not drawn) | inconclusive: 13 µM [cytotoxic, partial curve] |  |
| COc1ccc(-c2sc3ccccc3c2-c2ccc(OCCN(C)C)cc2)cc1 | inconclusive: 20.6 µM [cytotoxic, single point] |  |
| N#Cc1ccsc1NC(=O)COc1ccc(-c2nnco2)cc1 |  | inconclusive: -59.8% |
| O=C(CC1Nc2ccccc2NC1=O)NC1CCCCC1 (stereo not drawn) | inconclusive: 29.1 µM [cytotoxic, single point] |  |
| COc1ccc(NC(=O)c2nc[nH]c2C(=O)N2CCC(C)CC2)cc1 | inconclusive: 29.1 µM [rising, single point] |  |
| Cc1ccc2nc3sc(C(=O)N4CCCc5ccccc54)c(N)c3cc2c1 | active: 6.51 µM |  |
| COc1ccc2cc3c(N)nn(C(=O)c4ccccc4Cl)c3nc2c1 | inconclusive: 32.6 µM [cytotoxic, single point] and inconclusive: 14.6 µM [cytotoxic, partial curve] |  |
